Strings that start with PEPTIDE1 are HELM notation: dots part the residues, brackets hold end groups and non-standard residues.
Assay: peptide made by a vendor
Details: whole synthesis

## PEPTIDE1{I.M.A.V.L.A.I.V.L}$$$$V2.0
  outcome: IMAVLAIVL could not be synthesized due to the presence of too many hydrophobic amino acid residues
